Results are given in words; binding and its absence hold for the method and conditions named.
Molecular target: T1, human phosphoglycerate kinase, isoform 1 (hPGK1), wild-type (human), P00558
T1 chain: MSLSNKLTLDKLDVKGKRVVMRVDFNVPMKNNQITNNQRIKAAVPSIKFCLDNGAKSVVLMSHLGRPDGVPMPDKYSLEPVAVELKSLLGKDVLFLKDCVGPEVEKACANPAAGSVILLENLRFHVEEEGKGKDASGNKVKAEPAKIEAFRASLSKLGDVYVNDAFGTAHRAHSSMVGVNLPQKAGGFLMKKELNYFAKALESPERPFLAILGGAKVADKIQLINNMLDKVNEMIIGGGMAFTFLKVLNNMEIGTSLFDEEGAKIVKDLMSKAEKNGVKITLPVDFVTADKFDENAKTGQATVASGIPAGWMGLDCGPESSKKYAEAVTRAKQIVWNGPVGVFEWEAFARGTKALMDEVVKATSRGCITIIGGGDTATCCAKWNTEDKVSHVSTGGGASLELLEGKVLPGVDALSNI
Assay: SEC; Superdex 200 16/60, 20 mM HEPES-NaOH, 200 mM NaCl, pH 7.4, 1.5 mL/min, 25 °C; 4 mg of protein purified from IMAC loaded; elution volume compared with ovalbumin (44 kDa); both purified
Conditions: remark: other sources report otherwise

B1: human phosphoglycerate kinase, isoform 1 (hPGK1), wild-type, P00558-1 1-417 (enzyme)
chain: MSLSNKLTLDKLDVKGKRVVMRVDFNVPMKNNQITNNQRIKAAVPSIKFCLDNGAKSVVLMSHLGRPDGVPMPDKYSLEPVAVELKSLLGKDVLFLKDCVGPEVEKACANPAAGSVILLENLRFHVEEEGKGKDASGNKVKAEPAKIEAFRASLSKLGDVYVNDAFGTAHRAHSSMVGVNLPQKAGGFLMKKELNYFAKALESPERPFLAILGGAKVADKIQLINNMLDKVNEMIIGGGMAFTFLKVLNNMEIGTSLFDEEGAKIVKDLMSKAEKNGVKITLPVDFVTADKFDENAKTGQATVASGIPAGWMGLDCGPESSKKYAEAVTRAKQIVWNGPVGVFEWEAFARGTKALMDEVVKATSRGCITIIGGGDTATCCAKWNTEDKVSHVSTGGGASLELLEGKVLPGVDALSNI
binding: no binding (tested: 4 mg of protein loaded)

Reference: PMC9561527
